Data as given in PubChem BioAssay AID1259308 (NCATS, 2017)

Test: 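Genes whose loss raises luciferase production in HEK293 cells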 (primary screen)
Cells: human HEK293 embryonic kidney cells stably expressing firefly luciferase (HEK-CMV-Luc2-Hygro)
Reagents: single siRNA against human genes, 0.8 pmol siRNA per well
Duration: 72 h
Measured: 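Reporter luminescence and viable-cell signal on separate replicate plates, given as percent of non-targeting control and median/MAD z-scores, plus per-cell luciferase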
Scale: total luciferase, z-score and total luciferase, % of control: higher = more reporter protein produced
Active means: 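An siRNA counts as active if its total luciferase robust z-score exceeds 3; genes with two or more such siRNAs out of three were retested with fresh siRNAs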
Calls: active = raised luciferase; inactive = no rise
Here is an unselected part of about 59,000 deposited reagents. About 1,510 of all reagents (2.6%) count as active. 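Calls use total luciferase alone and ignore viability, so some active siRNAs may act by altering cell number.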 Entries without a mark were called inactive. Reagents against one gene are numbered here. Not all columns of the deposit are shown.

Target gene	reagent	total luciferase, z-score	total luciferase, % of control
SHD (GeneID 56961)	1	0.153	84.9
SHD (GeneID 56961)	2	-0.502	71.9
SHD (GeneID 56961)	3	0.668	95.2
PELP1 (GeneID 27043)	1	0.26	87.1
PELP1 (GeneID 27043)	2	-0.372	74.5
PELP1 (GeneID 27043)	3	-0.8	66
TGM6 (GeneID 343641)	1	-0.493	72.1
TGM6 (GeneID 343641)	2	0.193	85.7
TGM6 (GeneID 343641)	3	-1.47	52.6
MRPL45 (GeneID 84311)	1	0.213	86.1
MRPL45 (GeneID 84311)	2	0.403	89.9
MRPL45 (GeneID 84311)	3	-1.72	47.7
ECM1 (GeneID 1893)	1	1.62	114
ECM1 (GeneID 1893)	2	0.647	94.8
ECM1 (GeneID 1893)	3	-0.0278	81.3
PSORS1C1 (GeneID 170679)	1	-1.58	50.4
PSORS1C1 (GeneID 170679)	2	-0.115	79.6
PSORS1C1 (GeneID 170679)	3	1.03	102
UQCRBP1 (GeneID 442454)	1	-0.338	75.2
UQCRBP1 (GeneID 442454)	2	0.71	96
UQCRBP1 (GeneID 442454)	3	-1.89	44.4
TBX2 (GeneID 6909)	1	0.0666	83.2
TBX2 (GeneID 6909)	2	0.4	89.8
TBX2 (GeneID 6909)	3	-2.55	31.3
GSTA4 (GeneID 2941)	1	0.153	84.9
GSTA4 (GeneID 2941)	2	-1.07	60.7
GSTA4 (GeneID 2941)	3	-0.0537	80.8
TSC22D1 (GeneID 8848)	1	0.629	94.4
TSC22D1 (GeneID 8848)	2	-1.18	58.5
TSC22D1 (GeneID 8848)	3	0.481	91.5

Individual results from the list.
For “total luciferase, % of control”, GSTA4 (GeneID 2941) #2 has 60.7
SHD (GeneID 56961) #1, total luciferase, % of control → 84.9
Entry of PSORS1C1 (GeneID 170679) #2 under “total luciferase, z-score”: -0.115
Value of ECM1 (GeneID 1893) #2 under “total luciferase, % of control”: 94.8
PSORS1C1 (GeneID 170679) #1, total luciferase, % of control = 50.4
Result of TGM6 (GeneID 343641) #2 under “total luciferase, z-score”: 0.193

Further reagents follow.
Target gene	reagent	total luciferase, z-score	total luciferase, % of control
GDPD4 (GeneID 220032)	1	0.116	84.2
GDPD4 (GeneID 220032)	2	-1.35	55.1
GDPD4 (GeneID 220032)	3	4.38 (active)	169
SH3GLB2 (GeneID 56904)	1	1.51	112
SH3GLB2 (GeneID 56904)	2	0.166	85.2
SH3GLB2 (GeneID 56904)	3	0.761	97
SPINK7 (GeneID 84651)	1	0.017	82.2
SPINK7 (GeneID 84651)	2	-0.262	76.7
SPINK7 (GeneID 84651)	3	-0.87	64.6
ABCA2 (GeneID 20)	1	-1.34	55.1
ABCA2 (GeneID 20)	2	-0.812	65.7
ABCA2 (GeneID 20)	3	-1.24	57.2
CCSAP (GeneID 126731)	1	1.06	103
CCSAP (GeneID 126731)	2	-0.87	64.6
CCSAP (GeneID 126731)	3	1.51	112
GSTO2 (GeneID 119391)	1	0.844	98.7
GSTO2 (GeneID 119391)	2	-0.188	78.1
GSTO2 (GeneID 119391)	3	-0.625	69.5
SLC30A10 (GeneID 55532)	1	3.16 (active)	145
SLC30A10 (GeneID 55532)	2	0.824	98.3
SLC30A10 (GeneID 55532)	3	1.94	120
PRCP (GeneID 5547)	1	-0.438	73.2
PRCP (GeneID 5547)	2	0.927	100
PRCP (GeneID 5547)	3	-1.78	46.6
AGL (GeneID 178)	1	-0.987	62.3
AGL (GeneID 178)	2	-0.409	73.8
AGL (GeneID 178)	3	0.209	86
